Reference: PubChem BioAssay AID1508588 (Peter MacCallum Cancer Centre, 2020)
Purpose: 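Knock-downs boosting vemurafenib effects on melanoma cell growth or lactate release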 (primary screen). System: human WM266.4 melanoma cells (BRAF V600 mutant). Reagent: siRNA pool against human genes, 40 nM. Timing: 96 h from transfection to read-out. Challenge: vemurafenib 300 nM (about IC25), added 48 h after transfection, for 48 h; comparison arm got DMSO vehicle only. Measurement: 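Ratios to non-targeting siRNA for cell gain, counted as DAPI nuclei after minus before drug and averaged over two replicates, and for absorbance-read medium lactate per cell; both binned into fold-change classes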. Direction: cell gain with vemurafenib: higher = more cell gain than with non-targeting siRNA; lactate per cell with vemurafenib: higher = more lactate made per cell. Hit rule: 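a knock-down counts as enhancing when its fold-change classes with vehicle and with vemurafenib, taken together, show a stronger drug effect on cell gain or lactate per cell; exact class pairs not stated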. Calls: active = enhances vemurafenib effect; inactive = no enhancement seen.
In all, the deposit lists about 18,000 reagents; below is a random part of them. 790 of them (4.4%) were called active. 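Calls rest on a combination of fold-change classes in drug and vehicle arms, not all shown here.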 A number with no mark means an inactive call.

gene symbol | cell gain with vemurafenib | lactate per cell with vemurafenib
RHOG | 0.47 | 1.6
MYOCD | 0.57 | 0.74
PABPC1L2B | 0.39 | 1.4
PPP1R15B | 0.48 | 0.62
TCF15 | 1.28 | 0.68
MRGPRX2 | 0.59 | 0.42
CASD1 | 0.43 | 1.52
CXCL8 | 0.34 | 1.59
HDAC1 | 0.76 | 1
MIEN1 | 0.4 | 0.96
STPG4 | 0.18 (active) | 0.91
HNRNPUL1 | 0.49 | 1.01
OR2W3 | 0.53 | 1.06

Ordered by “cell gain with vemurafenib” (descending): 6 of the entries above.
gene symbol | cell gain with vemurafenib | lactate per cell with vemurafenib
TCF15 | 1.28 | 0.68
MRGPRX2 | 0.59 | 0.42
PPP1R15B | 0.48 | 0.62
CASD1 | 0.43 | 1.52
PABPC1L2B | 0.39 | 1.4
CXCL8 | 0.34 | 1.59

The results go on:
gene symbol | cell gain with vemurafenib | lactate per cell with vemurafenib
TRIM58 | 0.59 | 0.57
MISO1 | 1.04 | 0.96
NOVA1 | 0.67 | 0.96
CTSO | 0.81 | 0.57
ASPA | 0.52 | 0.43
MBTPS2 | 0.6 | 1.4
WIPF2 | 0.4 | 0.55
IRF3 | 0.48 | 1.94
ARV1 | 1.16 | 0.51
CLEC10A | 0.4 | 0.78
LAIR1 | 0.45 | 0.57
RXFP2 | 0.12 (active) | 0.86
ERVFRD-1 | 0.78 | 0.26
NAT16 | 0.89 | 1.04
NIT2 | 0.55 | 0.7
ESRRA | 0.42 | 1.29
RAB40B | 0.5 | 0.84
ABHD3 | 0.78 | 0.86
NAT1 | 0.83 | 0.86
PCDHGA10 | 0.38 | 0.76
HSPA5 | 0.46 | 1.22
